Measured values as given in the supplement of paper PMC8728848.
Some of the results follow.

Key:
Experiment in all cases: glycan array binding signal (z-score within array); higher = stronger binding
Settings in all cases: glycan notation: IUPAC condensed, linker removed
[1] = molecular target: GlcNAc(b1-2)[GlcNAc(b1-6)]Man(a1-6)[GlcNAc(b1-2)Man(a1-3)]Man(b1-4)GlcNAc(b1-4)[Fuc(a1-6)]GlcNAc
Procedure, shortened: (§1)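 From the Consortium for Functional Glycomics database, 3228 arrays were curated, keeping only those whose protein sequence was available. Binding is given as a within-array Z-score averaged across arrays sharing a protein sequence and across linkers. Negative Z-scores can be read as non-binding.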

[2] = molecular target: GlcNAc(b1-2)[GlcNAc(b1-6)]Man(a1-6)[GlcNAc(b1-2)Man(a1-3)][GlcNAc(b1-4)]Man(b1-4)GlcNAc(b1-4)GlcNAc
Procedure, shortened: as §1

[3] = molecular target: GlcNAc(b1-2)[GlcNAc(b1-6)]Man(a1-6)[GlcNAc(b1-4)][GlcNAc(b1-2)Man(a1-3)]Man(b1-4)GlcNAc(b1-4)GlcNAc
Procedure, shortened: as §1

GlcNAc(b1-3)Fuc = molecular target: GlcNAc(b1-3)Fuc
Procedure, shortened: as §1

GlcNAc(b1-3)Gal = molecular target: GlcNAc(b1-3)Gal
Procedure, shortened: as §1

[4] = molecular target: GlcNAc(b1-3)Gal(b1-3)GalNAc
Procedure, shortened: as §1

GlcNAc(b1-3)Gal(b1-4)Glc = molecular target: GlcNAc(b1-3)Gal(b1-4)Glc
Procedure, shortened: as §1

[5] = molecular target: GlcNAc(b1-3)Gal(b1-4)GlcNAc
Procedure, shortened: as §1

[6] = molecular target: GlcNAc(b1-3)Gal(b1-4)GlcNAc(b1-2)Man(a1-3)[GlcNAc(b1-3)Gal(b1-4)GlcNAc(b1-2)Man(a1-6)]Man(b1-4)GlcNAc(b1-4)GlcNAc
Procedure, shortened: as §1

[7] = molecular target: GlcNAc(b1-3)Gal(b1-4)GlcNAc(b1-2)Man(a1-3)[GlcNAc(b1-3)Gal(b1-4)GlcNAc(b1-2)Man(a1-6)]Man(b1-4)GlcNAc(b1-4)[Fuc(a1-6)]GlcNAc
Procedure, shortened: as §1

[8] = molecular target: GlcNAc(b1-3)Gal(b1-4)GlcNAc(b1-2)[GlcNAc(b1-3)Gal(b1-4)GlcNAc(b1-6)]Man(a1-6)[GlcNAc(b1-3)Gal(b1-4)GlcNAc(b1-2)Man(a1-3)]Man(b1-4)GlcNAc(b1-4)GlcNAc
Procedure, shortened: as §1

[9] = molecular target: GlcNAc(b1-3)Gal(b1-4)GlcNAc(b1-3)Gal(b1-4)GlcNAc
Procedure, shortened: as §1

[10] = molecular target: GlcNAc(b1-3)Gal(b1-4)GlcNAc(b1-3)Gal(b1-4)GlcNAc(b1-2)Man(a1-3)[GlcNAc(b1-3)Gal(b1-4)GlcNAc(b1-3)Gal(b1-4)GlcNAc(b1-2)Man(a1-6)]Man(b1-4)GlcNAc(b1-4)GlcNAc
Procedure, shortened: as §1

[11] = molecular target: GlcNAc(b1-3)Gal(b1-4)GlcNAc(b1-3)Gal(b1-4)GlcNAc(b1-2)Man(a1-3)[GlcNAc(b1-3)Gal(b1-4)GlcNAc(b1-3)Gal(b1-4)GlcNAc(b1-2)Man(a1-6)]Man(b1-4)GlcNAc(b1-4)[Fuc(a1-6)]GlcNAc
Procedure, shortened: as §1

[12] = molecular target: GlcNAc(b1-3)Gal(b1-4)GlcNAc(b1-3)Gal(b1-4)GlcNAc(b1-2)[GlcNAc(b1-3)Gal(b1-4)GlcNAc(b1-3)Gal(b1-4)GlcNAc(b1-6)]Man(a1-6)[GlcNAc(b1-3)Gal(b1-4)GlcNAc(b1-3)Gal(b1-4)GlcNAc(b1-2)Man(a1-3)]Man(b1-4)GlcNAc(b1-4)[Fuc(a1-6)]GlcNAc
Procedure, shortened: as §1

[13] = molecular target: GlcNAc(b1-3)Gal(b1-4)GlcNAc(b1-3)Gal(b1-4)GlcNAc(b1-3)Gal(b1-4)GlcNAc(b1-2)Man(a1-3)[GlcNAc(b1-3)Gal(b1-4)GlcNAc(b1-3)Gal(b1-4)GlcNAc(b1-3)Gal(b1-4)GlcNAc(b1-2)Man(a1-6)]Man(b1-4)GlcNAc(b1-4)GlcNAc
Procedure, shortened: as §1

[14] = molecular target: GlcNAc(b1-3)Gal(b1-4)GlcNAc(b1-3)Gal(b1-4)GlcNAc(b1-3)Gal(b1-4)GlcNAc(b1-2)Man(a1-3)[GlcNAc(b1-3)Gal(b1-4)GlcNAc(b1-3)Gal(b1-4)GlcNAc(b1-3)Gal(b1-4)GlcNAc(b1-2)Man(a1-6)]Man(b1-4)GlcNAc(b1-4)[Fuc(a1-6)]GlcNAc
Procedure, shortened: as §1

[15] = molecular target: GlcNAc(b1-3)Gal(b1-4)GlcNAc(b1-3)Gal(b1-4)GlcNAc(b1-3)Gal(b1-4)GlcNAc(b1-2)[GlcNAc(b1-3)Gal(b1-4)GlcNAc(b1-3)Gal(b1-4)GlcNAc(b1-3)Gal(b1-4)GlcNAc(b1-6)]Man(a1-6)[GlcNAc(b1-3)Gal(b1-4)GlcNAc(b1-3)Gal(b1-4)GlcNAc(b1-3)Gal(b1-4)GlcNAc(b1-2)Man(a1-3)]Man(b1-4)GlcNAc(b1-4)[Fuc(a1-6)]GlcNAc
Procedure, shortened: as §1

[16] = molecular target: GlcNAc(b1-3)Gal(b1-4)GlcNAc(b1-3)Gal(b1-4)GlcNAc(b1-3)Gal(b1-4)GlcNAc(b1-3)Gal(b1-4)GlcNAc(b1-2)Man(a1-3)[GlcNAc(b1-3)Gal(b1-4)GlcNAc(b1-3)Gal(b1-4)GlcNAc(b1-3)Gal(b1-4)GlcNAc(b1-3)Gal(b1-4)GlcNAc(b1-2)Man(a1-6)]Man(b1-4)GlcNAc(b1-4)GlcNAc
Procedure, shortened: as §1

[17] = molecular target: GlcNAc(b1-3)Gal(b1-4)GlcNAc(b1-3)Gal(b1-4)GlcNAc(b1-3)Gal(b1-4)GlcNAc(b1-3)Gal(b1-4)GlcNAc(b1-2)Man(a1-3)[GlcNAc(b1-3)Gal(b1-4)GlcNAc(b1-3)Gal(b1-4)GlcNAc(b1-3)Gal(b1-4)GlcNAc(b1-3)Gal(b1-4)GlcNAc(b1-2)Man(a1-6)]Man(b1-4)GlcNAc(b1-4)[Fuc(a1-6)]GlcNAc
Procedure, shortened: as §1

[18] = molecular target: GlcNAc(b1-3)Gal(b1-4)GlcNAc(b1-3)Gal(b1-4)GlcNAc(b1-3)Gal(b1-4)GlcNAc(b1-3)Gal(b1-4)GlcNAc(b1-2)[GlcNAc(b1-3)Gal(b1-4)GlcNAc(b1-3)Gal(b1-4)GlcNAc(b1-3)Gal(b1-4)GlcNAc(b1-3)Gal(b1-4)GlcNAc(b1-6)]Man(a1-6)[GlcNAc(b1-3)Gal(b1-4)GlcNAc(b1-3)Gal(b1-4)GlcNAc(b1-3)Gal(b1-4)GlcNAc(b1-3)Gal(b1-4)GlcNAc(b1-2)Man(a1-3)]Man(b1-4)GlcNAc(b1-4)[Fuc(a1-6)]GlcNAc
Procedure, shortened: as §1

[19] = molecular target: GlcNAc(b1-3)Gal(b1-4)GlcNAc(b1-3)Gal(b1-4)GlcNAc(b1-3)GalNAc
Procedure, shortened: as §1

[20] = molecular target: GlcNAc(b1-3)Gal(b1-4)GlcNAc(b1-3)GalNAc
Procedure, shortened: as §1

[21] = molecular target: GlcNAc(b1-3)Gal(b1-4)GlcNAc(b1-3)[GlcNAc(b1-3)Gal(b1-4)GlcNAc(b1-3)]GalNAc
Procedure, shortened: as §1

[22] = molecular target: GlcNAc(b1-3)Gal(b1-4)GlcNAc(b1-6)[Gal(b1-3)]GalNAc
Procedure, shortened: as §1

[23] = molecular target: GlcNAc(b1-3)Gal(b1-4)GlcNAc(b1-6)[GlcNAc(b1-3)Gal(b1-3)]GalNAc
Procedure, shortened: as §1

[24] = molecular target: GlcNAc(b1-3)Gal(b1-4)GlcNAc(b1-6)[GlcNAc(b1-3)]Gal(b1-4)GlcNAc
Procedure, shortened: as §1

GlcNAc(b1-3)GalNAc = molecular target: GlcNAc(b1-3)GalNAc
Procedure, shortened: as §1

GlcNAc(b1-3)Man = molecular target: GlcNAc(b1-3)Man
Procedure, shortened: as §1

[25] = molecular target: GlcNAc(b1-3)[GlcNAc(b1-4)][GlcNAc(b1-6)]GlcNAc
Procedure, shortened: as §1

[26] = molecular target: GlcNAc(b1-3)[GlcNAc(b1-6)]Gal(b1-4)GlcNAc
Procedure, shortened: as §1

[27] = molecular target: GlcNAc(b1-3)[GlcNAc(b1-6)]GalNAc
Procedure, shortened: as §1

[28] = molecular target: GlcNAc(b1-4)Gal(b1-4)GlcNAc
Procedure, shortened: as §1

GlcNAc(b1-4)GlcNAc = molecular target: GlcNAc(b1-4)GlcNAc
Procedure, shortened: as §1

[29] = molecular target: GlcNAc(b1-4)GlcNAc(b1-4)GlcNAc
Procedure, shortened: as §1

[30] = molecular target: GlcNAc(b1-4)GlcNAc(b1-4)GlcNAc(b1-4)GlcNAc(b1-4)GlcNAc
Procedure, shortened: as §1

[31] = molecular target: GlcNAc(b1-4)GlcNAc(b1-4)GlcNAc(b1-4)GlcNAc(b1-4)GlcNAc(b1-4)GlcNAc
Procedure, shortened: as §1

[32] = molecular target: GlcNAc(b1-4)[GlcNAc(b1-6)]GalNAc
Procedure, shortened: as §1

[33] = molecular target: GlcNAc(b1-6)Gal(b1-4)GlcNAc
Procedure, shortened: as §1

GlcNAc(b1-6)GalNAc = molecular target: GlcNAc(b1-6)GalNAc
Procedure, shortened: as §1

GlcNAc3Prop(b1-4)GlcNAc = molecular target: GlcNAc3Prop(b1-4)GlcNAc
Procedure, shortened: as §1

[34] = molecular target: GlcNAc6S(b1-3)Gal(b1-4)GlcNAc
Procedure, shortened: as §1

Kdn(a2-3)Gal(b1-3)GalNAc = molecular target: Kdn(a2-3)Gal(b1-3)GalNAc
Procedure, shortened: as §1

Kdn(a2-3)Gal(b1-3)GlcNAc = molecular target: Kdn(a2-3)Gal(b1-3)GlcNAc
Procedure, shortened: as §1

Kdn(a2-3)Gal(b1-4)Glc = molecular target: Kdn(a2-3)Gal(b1-4)Glc
Procedure, shortened: as §1

B1: GST Gap3 (Streptococcus parasanguinis) (protein)
chain: MTKQLISEIYWNEIRKGENYLYGSQIKFQEDLVNFYNPQLASGKPIVTFKSRTNYQGDRHSPDLPILIQGNRYLLEYQIDAVPANSFFLQLDFFNRQAEQIESIVLRNSGESFIFPKDTFTYTLTLMSAGCQSVTYQKFMIYDINDEEKKNHIVENRYLRELLPKDLDLVKNLIEYI
glycan array binding signal (z-score) [1]: -0.083
glycan array binding signal (z-score) [2]: -0.755
glycan array binding signal (z-score) [3]: -0.185
glycan array binding signal (z-score) (GlcNAc(b1-3)Fuc): -0.621
glycan array binding signal (z-score) (GlcNAc(b1-3)Gal): -0.281
glycan array binding signal (z-score) [4]: -0.218
glycan array binding signal (z-score) (GlcNAc(b1-3)Gal(b1-4)Glc): -0.644
glycan array binding signal (z-score) [5]: -0.32
glycan array binding signal (z-score) [6]: 0.029
glycan array binding signal (z-score) [7]: -0.386
glycan array binding signal (z-score) [8]: 3.45
glycan array binding signal (z-score) [9]: -0.278
glycan array binding signal (z-score) [10]: 1.64
glycan array binding signal (z-score) [11]: 0.269
glycan array binding signal (z-score) [12]: 1.25
glycan array binding signal (z-score) [13]: -0.253
glycan array binding signal (z-score) [14]: 0.692
glycan array binding signal (z-score) [15]: 0.345
glycan array binding signal (z-score) [16]: -0.337
glycan array binding signal (z-score) [17]: -0.584
glycan array binding signal (z-score) [18]: -0.202
glycan array binding signal (z-score) [19]: -0.068
glycan array binding signal (z-score) [20]: -0.509
glycan array binding signal (z-score) [21]: -0.518
glycan array binding signal (z-score) [22]: -0.4
glycan array binding signal (z-score) [23]: -0.43
glycan array binding signal (z-score) [24]: -0.627
glycan array binding signal (z-score) (GlcNAc(b1-3)GalNAc): -0.283
glycan array binding signal (z-score) (GlcNAc(b1-3)Man): -0.109
glycan array binding signal (z-score) [25]: -0.104
glycan array binding signal (z-score) [26]: -0.323
glycan array binding signal (z-score) [27]: -0.116
glycan array binding signal (z-score) [28]: -0.278
glycan array binding signal (z-score) (GlcNAc(b1-4)GlcNAc): -0.128
glycan array binding signal (z-score) [29]: -0.159
glycan array binding signal (z-score) [30]: -0.541
glycan array binding signal (z-score) [31]: -0.424
glycan array binding signal (z-score) [32]: -0.727
glycan array binding signal (z-score) [33]: -0.329
glycan array binding signal (z-score) (GlcNAc(b1-6)GalNAc): -0.168
glycan array binding signal (z-score) (GlcNAc3Prop(b1-4)GlcNAc): -0.011
glycan array binding signal (z-score) [34]: -0.145
glycan array binding signal (z-score) (Kdn(a2-3)Gal(b1-3)GalNAc): -0.382
glycan array binding signal (z-score) (Kdn(a2-3)Gal(b1-3)GlcNAc): -0.25
glycan array binding signal (z-score) (Kdn(a2-3)Gal(b1-4)Glc): -0.311
